Experimental data from article PMC9985596.
These are yes or no findings as the source states them, for the method shown. In cells and extracts the contact can be indirect. Some entries that bind do so weakly or less than the wild type. Where a sequence is shown, tags or fusion partners need not be part of it.

Protein sequences, listed by entry. Tags and fused reporters are not part of them.
UniProt Q9H1A4: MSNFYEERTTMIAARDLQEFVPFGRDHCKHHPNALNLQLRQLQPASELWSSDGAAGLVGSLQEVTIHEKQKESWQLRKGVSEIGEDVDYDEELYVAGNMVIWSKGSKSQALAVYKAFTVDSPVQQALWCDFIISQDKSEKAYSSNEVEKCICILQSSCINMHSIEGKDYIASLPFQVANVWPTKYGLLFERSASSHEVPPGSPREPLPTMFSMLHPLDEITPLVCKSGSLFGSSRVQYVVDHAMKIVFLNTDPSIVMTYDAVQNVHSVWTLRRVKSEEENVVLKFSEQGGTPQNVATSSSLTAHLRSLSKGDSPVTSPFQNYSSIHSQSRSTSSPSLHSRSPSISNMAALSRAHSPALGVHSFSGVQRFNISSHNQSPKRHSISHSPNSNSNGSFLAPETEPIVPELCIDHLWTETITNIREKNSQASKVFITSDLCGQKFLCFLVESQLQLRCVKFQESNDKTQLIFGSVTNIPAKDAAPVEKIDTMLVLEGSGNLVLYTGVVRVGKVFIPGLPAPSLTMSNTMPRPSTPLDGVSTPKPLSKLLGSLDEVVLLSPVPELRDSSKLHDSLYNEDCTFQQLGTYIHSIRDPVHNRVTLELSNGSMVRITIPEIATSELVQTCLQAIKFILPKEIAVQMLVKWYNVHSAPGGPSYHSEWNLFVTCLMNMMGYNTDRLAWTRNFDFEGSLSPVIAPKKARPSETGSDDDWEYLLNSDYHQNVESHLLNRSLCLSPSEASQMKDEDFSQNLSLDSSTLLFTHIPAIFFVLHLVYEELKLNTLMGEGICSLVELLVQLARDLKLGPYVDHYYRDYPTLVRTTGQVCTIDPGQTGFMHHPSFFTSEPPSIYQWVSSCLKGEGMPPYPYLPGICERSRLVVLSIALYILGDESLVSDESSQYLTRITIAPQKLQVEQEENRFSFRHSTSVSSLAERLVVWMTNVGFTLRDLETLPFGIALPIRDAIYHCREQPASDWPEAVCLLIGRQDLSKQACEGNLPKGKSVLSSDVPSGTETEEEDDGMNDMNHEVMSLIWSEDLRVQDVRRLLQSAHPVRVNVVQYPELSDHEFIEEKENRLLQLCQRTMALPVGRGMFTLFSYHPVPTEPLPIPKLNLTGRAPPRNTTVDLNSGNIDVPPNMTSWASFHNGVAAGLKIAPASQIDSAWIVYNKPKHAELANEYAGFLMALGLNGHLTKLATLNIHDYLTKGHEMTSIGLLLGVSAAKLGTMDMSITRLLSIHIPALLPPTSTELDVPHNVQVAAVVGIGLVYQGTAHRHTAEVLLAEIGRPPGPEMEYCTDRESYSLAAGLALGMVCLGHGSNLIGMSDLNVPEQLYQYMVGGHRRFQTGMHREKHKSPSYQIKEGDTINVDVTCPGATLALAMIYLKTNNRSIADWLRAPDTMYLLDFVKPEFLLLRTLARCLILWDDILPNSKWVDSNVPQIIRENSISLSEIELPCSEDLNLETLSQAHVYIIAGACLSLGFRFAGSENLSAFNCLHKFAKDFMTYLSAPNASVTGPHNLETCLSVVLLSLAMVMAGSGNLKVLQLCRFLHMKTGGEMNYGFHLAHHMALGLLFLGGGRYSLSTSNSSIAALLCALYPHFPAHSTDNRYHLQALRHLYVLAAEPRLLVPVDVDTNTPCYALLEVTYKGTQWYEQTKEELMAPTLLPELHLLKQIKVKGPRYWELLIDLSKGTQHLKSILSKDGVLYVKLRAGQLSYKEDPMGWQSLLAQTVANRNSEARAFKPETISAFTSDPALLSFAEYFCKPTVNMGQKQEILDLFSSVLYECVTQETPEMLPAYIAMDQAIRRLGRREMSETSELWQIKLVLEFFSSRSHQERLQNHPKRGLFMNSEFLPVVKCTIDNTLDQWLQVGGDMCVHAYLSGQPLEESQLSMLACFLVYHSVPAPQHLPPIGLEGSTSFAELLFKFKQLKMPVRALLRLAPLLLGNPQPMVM
UniProt Q9UJX4: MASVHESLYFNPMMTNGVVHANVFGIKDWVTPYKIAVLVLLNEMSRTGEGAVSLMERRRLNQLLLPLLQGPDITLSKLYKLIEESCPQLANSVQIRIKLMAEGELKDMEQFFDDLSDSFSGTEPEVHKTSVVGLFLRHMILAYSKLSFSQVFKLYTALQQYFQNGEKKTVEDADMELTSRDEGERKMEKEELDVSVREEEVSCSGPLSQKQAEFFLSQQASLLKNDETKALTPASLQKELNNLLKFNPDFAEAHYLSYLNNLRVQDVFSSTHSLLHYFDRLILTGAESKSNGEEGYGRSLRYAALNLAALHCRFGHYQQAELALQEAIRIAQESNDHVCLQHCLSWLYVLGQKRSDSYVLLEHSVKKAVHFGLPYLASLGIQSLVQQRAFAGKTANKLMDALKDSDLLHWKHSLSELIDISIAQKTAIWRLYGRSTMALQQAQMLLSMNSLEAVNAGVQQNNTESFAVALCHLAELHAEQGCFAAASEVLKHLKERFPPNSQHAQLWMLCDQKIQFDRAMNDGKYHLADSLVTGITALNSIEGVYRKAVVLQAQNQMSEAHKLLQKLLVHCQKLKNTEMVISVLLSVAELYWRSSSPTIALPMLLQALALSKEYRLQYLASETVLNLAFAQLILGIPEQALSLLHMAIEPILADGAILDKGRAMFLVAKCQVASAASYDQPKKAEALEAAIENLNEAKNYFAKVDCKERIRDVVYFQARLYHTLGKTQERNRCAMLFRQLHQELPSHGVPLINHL

Key:
[1] = target: T1, FLAG-tagged RECQ4 D1093X mutant (human) (UniProt O94761); experiment: co-IP; FLAG-RECQ4 proteins on anti-FLAG M2 agarose from chromatin-bound (CB) fractions of stable RECQ4 KD HEK293 cells; western blot (Fig. 2d right, Fig. 7g)
T1 sequence: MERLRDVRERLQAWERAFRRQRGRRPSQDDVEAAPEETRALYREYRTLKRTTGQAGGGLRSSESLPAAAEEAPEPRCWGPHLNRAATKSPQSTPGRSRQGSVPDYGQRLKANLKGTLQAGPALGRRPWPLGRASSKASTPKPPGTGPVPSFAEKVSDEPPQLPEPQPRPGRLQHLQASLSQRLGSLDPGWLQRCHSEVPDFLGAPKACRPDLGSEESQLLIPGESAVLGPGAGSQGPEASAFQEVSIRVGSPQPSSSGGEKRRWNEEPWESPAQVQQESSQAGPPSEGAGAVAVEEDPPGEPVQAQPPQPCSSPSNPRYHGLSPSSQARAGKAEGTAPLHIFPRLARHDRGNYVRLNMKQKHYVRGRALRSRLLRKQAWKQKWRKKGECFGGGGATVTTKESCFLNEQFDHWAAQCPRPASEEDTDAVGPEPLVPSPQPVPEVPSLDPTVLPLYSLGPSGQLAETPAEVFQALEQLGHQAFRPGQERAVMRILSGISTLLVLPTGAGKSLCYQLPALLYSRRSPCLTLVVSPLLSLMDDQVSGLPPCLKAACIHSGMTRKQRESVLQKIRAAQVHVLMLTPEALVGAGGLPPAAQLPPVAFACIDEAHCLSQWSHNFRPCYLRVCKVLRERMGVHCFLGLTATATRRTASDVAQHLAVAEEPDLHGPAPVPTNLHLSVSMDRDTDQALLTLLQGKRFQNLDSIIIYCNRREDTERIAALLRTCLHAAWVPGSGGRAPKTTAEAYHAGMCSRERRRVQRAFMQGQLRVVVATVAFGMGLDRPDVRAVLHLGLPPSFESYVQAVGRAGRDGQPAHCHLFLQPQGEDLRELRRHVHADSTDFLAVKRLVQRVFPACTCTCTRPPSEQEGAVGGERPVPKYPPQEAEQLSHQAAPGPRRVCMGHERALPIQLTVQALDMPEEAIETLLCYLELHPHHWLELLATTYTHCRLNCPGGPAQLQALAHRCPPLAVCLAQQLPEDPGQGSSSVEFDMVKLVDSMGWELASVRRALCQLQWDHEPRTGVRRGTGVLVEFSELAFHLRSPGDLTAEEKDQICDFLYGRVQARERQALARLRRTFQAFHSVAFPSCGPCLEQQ

[2] = target: T2, FLAG-tagged RECQ4 wild type (human) (UniProt O94761); experiment: as above
T2 sequence: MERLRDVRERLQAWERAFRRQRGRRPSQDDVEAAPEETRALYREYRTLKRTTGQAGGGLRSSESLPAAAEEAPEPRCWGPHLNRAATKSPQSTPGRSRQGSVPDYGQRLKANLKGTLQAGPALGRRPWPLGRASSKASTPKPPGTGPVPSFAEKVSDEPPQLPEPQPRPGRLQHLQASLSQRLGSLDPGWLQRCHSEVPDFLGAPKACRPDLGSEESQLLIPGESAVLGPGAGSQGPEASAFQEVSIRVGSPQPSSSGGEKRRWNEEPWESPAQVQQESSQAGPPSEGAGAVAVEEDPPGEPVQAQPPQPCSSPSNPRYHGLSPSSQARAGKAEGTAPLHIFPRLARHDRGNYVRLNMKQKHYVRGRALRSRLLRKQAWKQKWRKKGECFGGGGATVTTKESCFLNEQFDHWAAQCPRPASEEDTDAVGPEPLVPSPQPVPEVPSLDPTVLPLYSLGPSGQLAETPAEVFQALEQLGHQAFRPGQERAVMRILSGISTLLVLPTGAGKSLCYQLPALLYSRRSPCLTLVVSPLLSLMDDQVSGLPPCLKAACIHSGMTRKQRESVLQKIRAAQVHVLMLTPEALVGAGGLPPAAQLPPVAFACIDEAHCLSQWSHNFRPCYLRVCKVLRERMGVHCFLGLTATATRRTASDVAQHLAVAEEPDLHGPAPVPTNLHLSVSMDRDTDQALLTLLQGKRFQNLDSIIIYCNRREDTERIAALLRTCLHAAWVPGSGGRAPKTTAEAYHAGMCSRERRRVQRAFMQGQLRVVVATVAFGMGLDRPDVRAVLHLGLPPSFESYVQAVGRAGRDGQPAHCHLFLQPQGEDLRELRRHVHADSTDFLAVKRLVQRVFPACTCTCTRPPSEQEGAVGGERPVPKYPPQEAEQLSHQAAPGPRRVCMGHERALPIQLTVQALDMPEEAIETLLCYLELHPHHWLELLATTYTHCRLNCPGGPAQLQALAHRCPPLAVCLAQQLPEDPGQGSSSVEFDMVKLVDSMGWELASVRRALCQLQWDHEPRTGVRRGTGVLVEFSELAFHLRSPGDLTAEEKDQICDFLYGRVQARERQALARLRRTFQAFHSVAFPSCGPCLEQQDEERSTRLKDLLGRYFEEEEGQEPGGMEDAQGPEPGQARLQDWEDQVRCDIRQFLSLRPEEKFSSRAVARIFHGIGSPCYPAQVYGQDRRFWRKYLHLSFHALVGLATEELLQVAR

| binding [1] | binding [2] | Substance |
| --- | --- | --- |
| binds | binds | APC1 (from UniProt Q9H1A4 1-1944) |
| binds | binds | APC5 (from UniProt Q9UJX4 1-755) |
